The list is a part of this screen's results and no random one: it gathers tests that were run many times, whatever their T/C, doses with no T/C, and many T/C values between a quarter and a half above the control. Other doses and runs of a compound stand elsewhere. T/C is the treated group as % of the vehicle group. Some doses have a count of surviving animals in place of a T/C: the source files T/C as zero there, which appears to mark a toxic dose or a test without result, not a measured value. Some survivor counts are full or nearly so, which does not show that the dose was tolerated: the source hardly ever lists a survival T/C far under the control, and the zero likely stands for such cases as well. Survivors were counted at the toxicity check, usually on the fifth day, unless a day is given; later deaths do not show. Schedule codes are those of the source, read here as Q, the interval in days (D) or hours (H), X, the number of doses. Some schedules carry Z or #; the key to these is not given. Some entries hold several experiments; the values are given in rising order. Some structures stand for samples that the source files as different forms (salt, stereo form or complex); doses refer to the form tested. Where survival is the endpoint, this PubChem deposit counts one and a half times the control or more as active, and values a quarter to a half above the control carry no call in these data; other NCI protocols may use other cut-offs.
Test system: L1210 leukemia ip in BDF1 mice, survival T/C
Test: NCI In Vivo Anticancer Drug Screen. Data for tumor model L1210 Leukemia (intraperitoneal) in B6D2F1 (BDF1) mice
Conditions: T/C endpoint: mean survival time, higher T/C = longer survival
[1] = dose: 100.0 mg/kg/injection, schedule: Q04DX003 (ip), vehicle: Klucel (hydroxypropylcellulose) (HPC)
[2] = dose: 200.0 mg/kg/injection, schedule: Q04DX003 (ip), vehicle: Klucel (hydroxypropylcellulose) (HPC)
[3] = dose: 400.0 mg/kg/injection, schedule: Q04DX003 (ip), vehicle: Klucel (hydroxypropylcellulose) (HPC)
[4] = dose: 150.0 mg/kg/injection, schedule: Q01DX001 (ip), vehicle: saline
[5] = dose: 300.0 mg/kg/injection, schedule: Q01DX001 (ip), vehicle: saline
[6] = dose: 200.0 mg/kg/injection, schedule: Q01DX001 (ip), vehicle: Klucel (hydroxypropylcellulose) (HPC)
[7] = dose: 400.0 mg/kg/injection, schedule: Q01DX009 (ip), vehicle: saline with Tween-80
[8] = dose: 400.0 mg/kg/injection, schedule: Q01DX001 (ip), vehicle: carboxymethylcellulose (CMC)
[9] = dose: 50.0 mg/kg/injection, schedule: Q04DX003 (ip), vehicle: saline
[10] = dose: 100.0 mg/kg/injection, schedule: Q04DX003 (ip), vehicle: saline
[11] = dose: 200.0 mg/kg/injection, schedule: Q04DX003 (ip), vehicle: saline
[12] = dose: 400.0 mg/kg/injection, schedule: Q04DX003 (ip), vehicle: saline
[13] = dose: 100.0 mg/kg/injection, schedule: Q01DX001 (ip), vehicle: saline
[14] = dose: 200.0 mg/kg/injection, schedule: Q01DX001 (ip), vehicle: saline
[15] = dose: 400.0 mg/kg/injection, schedule: Q01DX001 (ip), vehicle: saline
[16] = dose: 400.0 mg/kg/injection, schedule: Q04DX002 (ip), vehicle: Klucel (hydroxypropylcellulose) (HPC)

NC(=O)N/N=C1/CCN2CCCc3cccc1c32
survivor count [1]: 3 of 6 | survivor count [2]: 0 of 6 | survivor count [3]: 0 of 6

CC(C)(C)NC=O
survivor count (dose: 150.0 mg/kg/injection, schedule: Q01DX009 (ip), vehicle: saline): 1 of 6 | survivor count (dose: 300.0 mg/kg/injection, schedule: Q04DX003 (ip), vehicle: saline): 2 of 6

Nc1cc(C(=O)Nc2cccc(C3=NCCCN3)c2)ccc1C(=O)Nc1cccc(C2=NCCCN2)c1
survivor count (dose: 1.36 mg/kg/injection, schedule: Q01DX Z (ip), vehicle: water): 0 of 6

CCOC(=O)C1(NC(=O)N(CCCl)N=O)CCCCC1
T/C (dose: 62.0 mg/kg/injection, schedule: Q01DX001 (ip), vehicle: other): 126 and 144 % of control

CC(/C=N/NC(N)=O)=N\NC(N)=O
survivor count (dose: 120.0 mg/kg/injection, schedule: Q01DX Z (ip), vehicle: saline): 5 of 6

CNC(c1ccccc1)C(O)c1ccccc1 (configuration not stated)
survivor count [2]: 2 of 6 | survivor count [3]: 0 of 6

CCCCCCCCCCCC[Si](Cl)(Cl)Cl
survivor count [4]: 1 of 6 | survivor count [5]: 2 of 6

ClC(Cl)(Cl)c1nccnc1Br
survivor count (dose: 100.0 mg/kg/injection, schedule: Q01DX009 (ip), vehicle: Klucel (hydroxypropylcellulose) (HPC)): 3 of 3 | survivor count (dose: 200.0 mg/kg/injection, schedule: Q01DX009 (ip), vehicle: Klucel (hydroxypropylcellulose) (HPC)): 2 of 3

CN(C)c1ccc(/C=C/c2cc[n+](C)cc2)cc1
survivor count (dose: 32.0 mg/kg/injection, schedule: Q04DX003 (ip), vehicle: saline with Tween-80): 1 of 6

C=CC(=O)NCNC(C)C (tested in a mixture with another compound)
survivor count (dose: 50.0 mg/kg/injection, schedule: Q01DX009 (ip), vehicle: saline): 0 of 3

CSc1nncc(-c2ccccc2)n1
survivor count [6]: 3 of 6 | survivor count (dose: 400.0 mg/kg/injection, schedule: Q01DX001 (ip), vehicle: Klucel (hydroxypropylcellulose) (HPC)): 0 of 6

O=C(COc1ccccc1)NC(=S)Nc1ccc(F)c([N+](=O)[O-])c1
survivor count [7]: 3 of 3

COC1=C(F)C(=O)C(OC)=C(F)C1=O
survivor count (dose: 10.0 mg/kg/injection, schedule: Q01DX001 (ip), vehicle: alcohol): 0 of 6 | survivor count (dose: 20.0 mg/kg/injection, schedule: Q01DX001 (ip), vehicle: alcohol): 0 of 6 | survivor count (dose: 40.0 mg/kg/injection, schedule: Q01DX001 (ip), vehicle: alcohol): 0 of 6 | survivor count (dose: 75.0 mg/kg/injection, schedule: Q01DX001 (ip), vehicle: saline): 0 of 6 | survivor count [4]: 0 of 6 | survivor count [5]: 0 of 6

CCCN=C(N)C(N)=NCCC
survivor count (dose: 400.0 mg/kg/injection, schedule: Q01DX009 (ip), vehicle: saline): 1 of 6

O=C(O)c1ccc(S(=O)(=O)O)cc1C(=O)O
survivor count [7]: 6 of 6

O=C(Nc1ccc([N+](=O)[O-])cc1Cl)Oc1ccc(Cl)cc1Cl
survivor count (dose: 400.0 mg/kg/injection, schedule: Q01DX009 (ip), vehicle: carboxymethylcellulose (CMC)): 3 of 3

Nc1ncc(Br)c2ccccc12
survivor count (dose: 400.0 mg/kg/injection, schedule: Q04DX003 (ip), vehicle: saline with Tween-80): 0 of 6

Cc1ccc(C(C)(C)CP(c2ccccc2)c2ccccc2)cc1
survivor count (dose: 100.0 mg/kg/injection, schedule: Q04DX002 (ip), vehicle: saline with Tween-80): 3 of 3

O=C(O)/C=C(\CC(=O)O)C(=O)O
survivor count [6]: 6 of 6

Cc1cccc(NC(=O)N(CCCl)N=O)c1
T/C (dose: 2.6 mg/kg/injection, schedule: Q01DX009 (ip), vehicle: carboxymethylcellulose (CMC)): 131 % of control | survivor count (dose: 100.0 mg/kg/injection, schedule: Q01DX001 (ip), vehicle: carboxymethylcellulose (CMC)): 1 of 4 | survivor count (dose: 200.0 mg/kg/injection, schedule: Q01DX001 (ip), vehicle: carboxymethylcellulose (CMC)): 0 of 4 | survivor count [8]: 0 of 4

[Cl][Sn]([Cl])([Cl])[Cl]
survivor count (dose: 25.0 mg/kg/injection, schedule: Q04DX003 (ip), vehicle: saline): 0 of 3 | survivor count [9]: 0 of 3 | survivor count [10]: 0 of 3 | survivor count [11]: 1 of 3 | survivor count [12]: 0 of 3

CN(C)C1CCCC(OC(=O)c2ccccc2)C1 (configuration not stated)
survivor count (dose: 200.0 mg/kg/injection, schedule: Q04DX003 (ip), vehicle: saline sonified): 6 of 6 | survivor count (dose: 400.0 mg/kg/injection, schedule: Q04DX003 (ip), vehicle: saline sonified): 0 of 6

N/N=C(/C=N/N)C(O)CO (configuration not stated)
survivor count (dose: 200.0 mg/kg/injection, schedule: Q01DX001 (ip), vehicle: saline with Tween-80): 3 of 3

CCCCCCCN1CCCC(OC(=O)N(C)C)C1 (configuration not stated)
survivor count (dose: 200.0 mg/kg/injection, schedule: Q04DX002 (ip), vehicle: saline): 1 of 3 | survivor count (dose: 400.0 mg/kg/injection, schedule: Q04DX002 (ip), vehicle: saline): 0 of 3

CCCCn1cnc(=O)c2[nH]cnc21
survivor count (dose: 25.0 mg/kg/injection, schedule: Q01DX009 (ip), vehicle: saline): 6 of 6

CCN(CC)CCSC(=O)C(O)(c1ccccc1)C1CCCC1 (configuration not stated)
survivor count (dose: 200.0 mg/kg/injection, schedule: Q01DX009 (ip), vehicle: saline): 0 of 6 | survivor count [5]: 1 of 6 | survivor count [12]: 0 of 6

CC(=N/NC(=O)c1ccc[n+](C)c1)/C(C)=N\NC(=O)c1ccc[n+](C)c1
survivor count [13]: 1 of 3 and 2 of 6 | survivor count [14]: 0 of 6 | survivor count [15]: 0 of 6

CC1CN=C(c2ccc(NC(=O)c3ccc(NC(=O)c4ccc(C5=NCC(C)N5)cc4)cc3)cc2)N1 (configuration not stated)
survivor count (dose: 15.0 mg/kg/injection, schedule: Q01DX Z (ip), vehicle: other): 2 of 6 | survivor count (dose: 30.0 mg/kg/injection, schedule: Q01DX Z (ip), vehicle: other): 0 of 6 | survivor count (dose: 60.0 mg/kg/injection, schedule: Q01DX Z (ip), vehicle: other): 0 of 6 | survivor count (dose: 120.0 mg/kg/injection, schedule: Q01DX Z (ip), vehicle: other): 0 of 6

CCc1c(Cl)c(C)c(Cl)c(O)c1Cl
survivor count (dose: 400.0 mg/kg/injection, schedule: Q04DX003 (ip), vehicle: other): 2 of 3

Nc1nc(N)c(N=O)c(Nc2ccc(I)cc2)n1
survivor count (dose: 200.0 mg/kg/injection, schedule: Q01DX009 (ip), vehicle: acetone): 3 of 6 | survivor count [8]: 2 of 6

NCC1C2CC3CC(C2)CC1C3 (configuration not stated)
survivor count [13]: 3 of 6 | survivor count [14]: 0 of 6 | survivor count [15]: 0 of 6 | survivor count [16]: 1 of 3

NC(=O)COc1ccc2ccccc2c1Cl
survivor count [16]: 3 of 3

C[N+](C)(C)c1ccc(N2C(=O)C3C4c5ccccc5C(C3C2=O)[n+]2ccccc24)cc1 (configuration not stated)
survivor count [9]: 0 of 6 | survivor count [10]: 0 of 6 | survivor count [11]: 0 of 6 | survivor count [12]: 1 of 6

NC(=S)NN=C1CCC1
survivor count (dose: 50.0 mg/kg/injection, schedule: Q01DX001 (ip), vehicle: saline): 2 of 4 | survivor count [14]: 0 of 4 and 1 of 4 | survivor count [15]: 0 of 4

CCOC(=O)c1cnc(SC)nc1Nc1c(Br)cc(Br)cc1Br
survivor count [1]: 0 of 6 | survivor count [2]: 1 of 6 | survivor count [3]: 0 of 6

Clc1ccc(CSC2=NCCN2)cc1
survivor count [10]: 2 of 6 | survivor count [11]: 0 of 6 | survivor count [12]: 0 of 6

From PubChem BioAssay AID248 (DTP/NCI, 2004)
